In PubChem BioAssay AID1671190 (National Center for Advancing Translational Sciences (NCATS), 2021):
Among all 580,000 compounds or so, about 6,100 (1.1%) were called active. Inconclusive results, whose numbers are uncertain, are shown with a selection of clear calls. The call rests on the fitted dose curve; in most records, active means well fitted inhibition curve with a large enough effect; inconclusive means small, poorly fitted or top-dose-only effect, or another doubt; inactive means no such curve, though single readings can be large or run the other way. Where the call is inconclusive, the potency comes from a doubtful curve fit.

The chains behind the UniProt entries cited, without tags or fusion partners. Where a name states a change or a piece, a line headed by the entry shows the natural chain unless it says otherwise.
UniProt P18054: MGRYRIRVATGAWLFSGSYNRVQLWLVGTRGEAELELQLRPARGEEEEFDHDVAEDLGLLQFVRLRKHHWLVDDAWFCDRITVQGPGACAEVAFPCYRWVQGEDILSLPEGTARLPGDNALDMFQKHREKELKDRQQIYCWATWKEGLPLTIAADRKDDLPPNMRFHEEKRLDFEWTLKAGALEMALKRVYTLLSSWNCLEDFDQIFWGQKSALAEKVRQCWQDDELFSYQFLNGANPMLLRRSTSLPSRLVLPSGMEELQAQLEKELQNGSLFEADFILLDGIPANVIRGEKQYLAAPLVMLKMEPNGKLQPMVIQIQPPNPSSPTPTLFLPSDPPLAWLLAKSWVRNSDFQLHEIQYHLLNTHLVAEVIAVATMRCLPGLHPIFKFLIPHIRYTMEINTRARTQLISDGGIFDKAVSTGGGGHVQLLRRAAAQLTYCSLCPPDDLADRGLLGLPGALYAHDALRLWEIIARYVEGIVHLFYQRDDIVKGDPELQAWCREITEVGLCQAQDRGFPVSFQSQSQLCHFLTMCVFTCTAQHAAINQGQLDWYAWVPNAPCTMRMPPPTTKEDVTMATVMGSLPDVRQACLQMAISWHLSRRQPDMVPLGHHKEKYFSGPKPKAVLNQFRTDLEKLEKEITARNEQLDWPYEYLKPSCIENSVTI

Target: Polyunsaturated fatty acid lipoxygenase ALOX12 (Homo sapiens) (UniProt P18054)
Test: Primary qHTS assay for inhibitors of human arachidonate 12S-lipoxygenase (ALOX12): Round 2
Conditions: purified 12hLO, xylenol orange hydroperoxide absorbance; series mostly up to 108 µM
Method in brief: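 Purified human 12hLO (150 nM final) in 25 mM Hepes, 0.01% Triton X-100, pH 7.0 was preincubated 15 min at room temperature with compound. Then 40 uM arachidonic acid was added, 30 min. Hydroperoxide was read by Fe-XO absorbance ratio 573/405 nm.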
Potency means the concentration at half of the fitted maximal effect.

Question: How did the Potency turn out when COc1ccccc1CN1CCC(Cc2ccccc2)CC1 was run?
Answer: The Potency was active: 0.562 µM.

Question: With COc1ccc(NC(=O)c2cccnc2NCCc2ccccc2)cc1 as the molecule, how does the Potency read?
Answer: The Potency was active: 44.7 µM.

Question: With Cc1ccc(S(=O)(=O)N2[C@@H](c3ccc(Br)cc3)C(C(=O)O)=CC[C@H]2c2ccc(Cl)cc2)cc1 as the molecule, how does the Potency read?
Answer: The Potency was inconclusive: 50.1 µM [inhibitor, partial curve, poor fit].

Question: Which Potency does the source give for CCOC(=O)c1ccccc1NC(=O)Cn1c(=O)n(Cc2nc(C)no2)c(=O)c2ccccc21 here?
Answer: The Potency was inconclusive: 126 µM [inhibitor, single point].

Question: How did the Potency turn out when C/C(=N\NC(=O)C(=O)Nc1c(C)n(C)n(-c2ccccc2)c1=O)c1ccc(Cl)s1 was run?
Answer: Its Potency is inconclusive: 3.16 µM [inhibitor, full curve, poor fit].

Question: NC[C@H]1O[C@@H](CO)[C@@H](O)[C@H]1N1CCN(c2ncccn2)CC1 was tested. Which Potency did it give?
Answer: Its Potency is active: 20 µM.

Question: For Cc1cccc2nc(CSc3ccc4ccccc4n3)cc(=O)n12, which Potency is on record?
Answer: The Potency was inconclusive: 28.2 µM [inhibitor, partial curve, poor fit].

Question: O=C(Oc1c(Br)cc([N+](=O)[O-])cc1Br)c1cccnc1 was tested. Which Potency did it give?
Answer: Its Potency is “inactive”.

Question: How did the Potency turn out when CC(C)(C)c1ccc(C(=O)NCCCNC(=O)c2ccc(C(C)(C)C)cc2)cc1 was run?
Answer: The Potency was inconclusive: 0.251 µM [inhibitor, full curve, poor fit].

Question: C#CCOCCOCCOCCNc1nc(N2CCN(C(=O)[C@H](CCC(=O)O)n3cc(C(N)[C@H](C)CC)nn3)CC2)nc(N2CCN(C(=O)[C@H](CCC(=O)O)n3cc(C(N)[C@H](C)CC)nn3)CC2)n1 (some centres not stated) was tested. Which Potency did it give?
Answer: Its Potency is “inactive”.

Question: With O=C(NCCc1ccc(O)cc1)c1[nH]c(C(F)(F)F)nc1-c1ccccc1 as the molecule, how does the Potency read?
Answer: The Potency was inconclusive: 79.4 µM [inhibitor, partial curve, poor fit].

Question: O=C(N[C@H]1C[C@H]2C(=O)NC[C@@H](CCC(=O)N3CCCCC3)N2C1)c1ccco1 was tested. Which Potency did it give?
Answer: The Potency was inconclusive: 28.2 µM [inhibitor, full curve, poor fit].

Question: Cc1ccc(C)c(N2CCN(C(=O)C3CCCN(c4ncnc5c4nc4n5CCCCC4)C3)CC2)c1 (configuration not stated) was tested. Which Potency did it give?
Answer: Its Potency is “inactive”.

Question: With COc1cc(CNc2nc(C)c(-c3ccn(CC4CCCN(C)C4)n3)s2)ccc1F (configuration not stated) as the molecule, how does the Potency read?
Answer: The Potency was inconclusive: 141 µM [inhibitor, single point].

Question: Which Potency does the source give for CC(C)NC(=O)[C@H]1O[C@H](CCN2CCN(c3ccc(F)cc3)CC2)CC[C@@H]1O here?
Answer: The Potency was “inactive”.

Question: How did the Potency turn out when Cc1sc(NC(=O)c2ccc3ncsc3c2)c(C(N)=O)c1C was run?
Answer: The Potency was inconclusive: 50.1 µM [inhibitor, partial curve, poor fit].

Question: How did the Potency turn out when CC(N)(C(=O)O)c1ccc(C(F)(F)F)cc1 (configuration not stated) was run?
Answer: The Potency was inconclusive: 2.51 µM [inhibitor, full curve].
